In article doi:10.1101/2025.11.10.25339594:
No constants are given. Whether binding was seen depends on the method and setting. Binding seen in cells or lysates may run through a third protein. Some entries that bind do so weakly or less than the wild type.

Sequences of proteins named here, by UniProt entry; tags and fusion partners are left off.
UniProt P11802: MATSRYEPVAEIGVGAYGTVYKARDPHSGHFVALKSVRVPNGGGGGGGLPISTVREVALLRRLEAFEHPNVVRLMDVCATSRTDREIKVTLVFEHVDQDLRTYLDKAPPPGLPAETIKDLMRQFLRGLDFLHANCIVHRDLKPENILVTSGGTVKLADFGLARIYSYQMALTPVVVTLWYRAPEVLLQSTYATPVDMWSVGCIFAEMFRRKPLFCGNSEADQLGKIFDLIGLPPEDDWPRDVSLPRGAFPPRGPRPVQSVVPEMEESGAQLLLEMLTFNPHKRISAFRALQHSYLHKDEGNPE
UniProt Q00534: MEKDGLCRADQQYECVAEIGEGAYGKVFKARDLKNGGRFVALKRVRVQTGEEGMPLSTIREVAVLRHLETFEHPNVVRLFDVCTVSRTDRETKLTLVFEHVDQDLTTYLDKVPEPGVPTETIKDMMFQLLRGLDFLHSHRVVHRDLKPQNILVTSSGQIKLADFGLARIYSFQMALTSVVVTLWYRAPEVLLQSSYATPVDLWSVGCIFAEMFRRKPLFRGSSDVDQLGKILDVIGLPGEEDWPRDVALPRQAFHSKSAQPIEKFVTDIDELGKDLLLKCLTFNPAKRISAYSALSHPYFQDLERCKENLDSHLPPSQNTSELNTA
UniProt P24385: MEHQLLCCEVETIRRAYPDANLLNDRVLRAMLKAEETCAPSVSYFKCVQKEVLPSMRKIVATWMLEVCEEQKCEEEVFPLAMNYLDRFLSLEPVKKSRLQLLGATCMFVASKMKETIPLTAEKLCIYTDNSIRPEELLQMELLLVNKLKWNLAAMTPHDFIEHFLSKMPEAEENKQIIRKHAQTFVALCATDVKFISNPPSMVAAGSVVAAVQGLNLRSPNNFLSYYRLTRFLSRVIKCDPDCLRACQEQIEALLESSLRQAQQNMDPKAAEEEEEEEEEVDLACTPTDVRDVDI
UniProt P46527: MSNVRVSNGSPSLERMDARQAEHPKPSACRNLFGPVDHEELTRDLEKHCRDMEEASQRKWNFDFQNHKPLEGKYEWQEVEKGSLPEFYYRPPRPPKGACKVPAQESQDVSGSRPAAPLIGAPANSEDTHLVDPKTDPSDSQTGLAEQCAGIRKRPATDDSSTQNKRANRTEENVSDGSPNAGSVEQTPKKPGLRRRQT

Experiments:
[1] = molecular target: CDK4 (human (endogenous in HNSCC cell lines)) (UniProt P11802); assay: co-IP
[2] = molecular target: CDK6 (human (endogenous in HNSCC cell lines)) (UniProt Q00534); assay: co-IP

binding [1] | binding [2] | Substance
binds | – | cyclin D1 (from UniProt P24385 1-295)
– | binds | cyclin D1 (from UniProt P24385 1-295) (other; other documents disagree on this pair)
binds | – | p27 (from UniProt P46527 1-198)
